These results are taken from the supplement of paper PMC9254222.

The subject of this assay is HEK293T (UBE3A T485A transfected, BAR Wnt reporter). Kind of assay: Renilla luciferase signal (cell health) relative to plate median (fold (linear ratio)); higher = higher Renilla signal. Conditions: 24 h. In short, it runs like this:
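Each value averages four biological replicates in HEK293T cells grown at 4500 cells/well in DMEM with 10% FBS at 37°C and 5% CO2. The cells were transfected with a BAR firefly luciferase Wnt reporter, TK-Renilla and an expression plasmid, then four hours later robotically treated with the chemicals at 0.01–100 uM for 24 h. Dual-Glo luciferase signals were median-centred per plate, with the firefly/Renilla ratio reported as Wnt activity and raw Renilla as cell health.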

In all, about 1,100 compounds were measured (“Renilla luciferase signal (cell health) relative to plate median”: median about 0.97, highest 2% from about 1.6 on). The entries are a selection whose mix differs from that of the whole data set.

As for `Clc1nc(Cl)nc(Nc2ccccc2Cl)n1` [Anilazine], the Renilla luciferase signal (concentration: 0.01 uM) amounted to 1.13; the Renilla luciferase signal (concentration: 0.1 uM) turned out to be 1.15; the Renilla luciferase signal (concentration: 1 uM) was 1.05; the Renilla luciferase signal (concentration: 10 uM) turned out to be 1.07; the Renilla luciferase signal (concentration: 100 uM) came out at 1.54.

`Cl[C@H]1[C@H](Cl)[C@@H](Cl)[C@H](Cl)[C@@H](Cl)[C@@H]1Cl` [beta-Hexachlorocyclohexane]: the Renilla luciferase signal (concentration: 0.1 uM) is 1.04, the Renilla luciferase signal (concentration: 1 uM) turned out to be 1.14, the Renilla luciferase signal (concentration: 10 uM) came out at 0.998 and the Renilla luciferase signal (concentration: 100 uM) came out at 1.43.

For the molecule `Cc1ccccc1COC1CC2(C(C)C)CCC1(C)O2` (stereo not given) [Cinmethylin], the Renilla luciferase signal was 1.14 (concentration: 0.01 uM); 1.04 (concentration: 0.1 uM); 1.02 (concentration: 1 uM); 1.09 (concentration: 10 uM); 1.56 (concentration: 100 uM).

Consider `C=CC(N)=O` [Acrylamide], for which the Renilla luciferase signal is 1.26 (concentration: 0.1 uM), 1.3 (concentration: 1 uM), 1.31 (concentration: 10 uM) and 1.36 (concentration: 100 uM).

For the molecule `CCCCc1ccccc1` [Butylbenzene], the Renilla luciferase signal is, setting by setting: (concentration: 0.1 uM) 0.889; (concentration: 1 uM) 0.772; (concentration: 10 uM) 0.848; (concentration: 100 uM) 1.19.

For `CCc1ccc(C(=O)NN(C(=O)c2cc(C)cc(C)c2)C(C)(C)C)cc1` [Tebufenozide], the Renilla luciferase signal (concentration: 0.01 uM) is 0.917; the Renilla luciferase signal (concentration: 0.1 uM) worked out at 0.938; the Renilla luciferase signal (concentration: 1 uM) stood at 0.914; the Renilla luciferase signal (concentration: 10 uM) amounted to 0.89; the Renilla luciferase signal (concentration: 100 uM) was 0.94.

Regarding `Cc1ccc(O)c(C)c1` [2,4-Dimethylphenol], the Renilla luciferase signal is, setting by setting: (concentration: 0.1 uM) 1.02; (concentration: 1 uM) 1.02; (concentration: 10 uM) 0.947; (concentration: 100 uM) 1.21.

On to `c1ccc(C2CO2)cc1` (stereo not given) [Styrene oxide], for which the Renilla luciferase signal (concentration: 0.1 uM) was 0.989, the Renilla luciferase signal (concentration: 1 uM) was determined as 1.09, the Renilla luciferase signal (concentration: 10 uM) is 1.2 and the Renilla luciferase signal (concentration: 100 uM) was found to be 1.31.

As for `CN1CSC(=S)N(C)C1` [Dazomet], the Renilla luciferase signal reads like this: (concentration: 0.01 uM) 0.995; (concentration: 0.1 uM) 0.805; (concentration: 1 uM) 0.888; (concentration: 10 uM) 0.954; (concentration: 100 uM) 0.553.
